# Values quoted from earlier work, collected in patent publication US12168000B2, “Methods of treating pain” (Scilex Holding Company, priority 2020, dated 2024).
# Details: between 5° C. and 40° C.; pH-independent at pH<9
structure (smiles),measurement,value
"Cc1ccc(-c2cc(C(F)(F)F)nn2-c2ccc(S(N)(=O)=O)cc2)cc1 [Celecoxib, 4-[5-(4-methylphenyl)-3-(trifluoromethyl)-1H-pyrazol-1-yl] benzenesulfonamide]",aqueous solubility,about 5 μg/ml
